From PubChem BioAssay AID330 (DTP/NCI, 2004) come the findings set out here.

This assay deals with P388 leukemia ip, CD2F1 mice, survival T/C. In words: NCI In Vivo Anticancer Drug Screen. Data for tumor model P388 Leukemia (intraperitoneal) in CD2F1 (CDF1) mice. The settings on record: T/C endpoint: median survival time, higher T/C = longer survival.
[1] abbreviates: dose: 50.0 mg/kg/injection, schedule: Q01DX005 (ip), vehicle: Klucel (hydroxypropylcellulose) (HPC).
The mark [2] stands for this setting: dose: 100.0 mg/kg/injection, schedule: Q01DX005 (ip), vehicle: Klucel (hydroxypropylcellulose) (HPC).
Setting [3] is: dose: 50.0 mg/kg/injection, schedule: Q01DX009 (ip), vehicle: saline.
Setting [4] is: dose: 100.0 mg/kg/injection, schedule: Q01DX009 (ip), vehicle: saline.
[5] abbreviates: dose: 200.0 mg/kg/injection, schedule: Q01DX009 (ip), vehicle: saline.
[6] abbreviates: dose: 50.0 mg/kg/injection, schedule: Q01DX005 (ip), vehicle: saline.
The mark [7] stands for this setting: dose: 100.0 mg/kg/injection, schedule: Q01DX005 (ip), vehicle: saline.
[8] abbreviates: dose: 200.0 mg/kg/injection, schedule: Q01DX005 (ip), vehicle: saline.
The mark [9] stands for this setting: dose: 6.25 mg/kg/injection, schedule: Q01DX009 (ip), vehicle: saline with Tween-80.

SMILES strings stand for the structures. The list does not hold the whole screen: it gathers tests that were run many times, whatever their T/C, doses with no T/C, and many T/C values between a quarter and a half above the control. Other doses and runs of a compound stand elsewhere. T/C: endpoint of the treated group in % of that of the vehicle group. Some doses have a count of surviving animals in place of a T/C: the source holds a T/C of zero for them, seemingly a mark for toxic or unscored doses. Some survivor counts are full or nearly so, which does not show that the dose was tolerated: the source hardly ever lists a survival T/C far under the control, and the zero likely stands for such cases as well. Survivors were counted at the toxicity check, usually on the fifth day, unless a day is given; later deaths do not show. Schedules are NCI's codes, taken here to give the interval after Q, in days (D) or hours (H), and the number of doses after X. Some entries hold several experiments; their values stand side by side, smallest first. For survival time, the PubChem record calls one and a half times the control and up active, and a quarter to a half above the control has no call in these data; cut-offs in other NCI protocols can differ. Some T/C values are followed by the survivors on the day toxicity was checked, most often the fifth; where none is given, no animal had died by that day.

With `COc1ccc2c(c1)N=C(NNC1=Nc3cc(OC)ccc3SC1)CS2`, the survivor count is 6 of 6 (dose: 60.0 mg/kg/injection, schedule: Q01DX005 (ip), vehicle: saline with Tween-80); 6 of 6 (dose: 120.0 mg/kg/injection, schedule: Q01DX005 (ip), vehicle: saline with Tween-80); 6 of 6 (dose: 240.0 mg/kg/injection, schedule: Q01DX005 (ip), vehicle: saline with Tween-80).

Regarding `CC(C)(SSC(C)(C)C1NC(=O)NC1=O)C1NC(=O)NC1=O` (stereo unspecified), the survivor count is, setting by setting: under setting [1], 6 of 6; under setting [2], 1 of 6; (dose: 200.0 mg/kg/injection, schedule: Q01DX005 (ip), vehicle: Klucel (hydroxypropylcellulose) (HPC)) 0 of 6.

On to `O=C1CCCC1C(=S)S` (stereo unspecified), for which the survivor count (dose: 400.0 mg/kg/injection, schedule: Q04DX003 (ip), vehicle: saline) is reported as 4 of 6.

As to `O=C1CN(C(=O)Nc2ccc(Cl)c(Cl)c2)C(=S)N1`, the survivor count reads like this: (dose: 50.0 mg/kg/injection, schedule: Q01DX009 (ip), vehicle: Klucel (hydroxypropylcellulose) (HPC)) 4 of 6 and 5 of 6; (dose: 100.0 mg/kg/injection, schedule: Q01DX009 (ip), vehicle: Klucel (hydroxypropylcellulose) (HPC)) 1 of 6; (dose: 200.0 mg/kg/injection, schedule: Q01DX009 (ip), vehicle: Klucel (hydroxypropylcellulose) (HPC)) 0 of 6.

`C1=CCC23COCC2(C1)CSC3` (stereo unspecified): the survivor count under setting [3] is reported as 3 of 6, the survivor count under setting [4] is 5 of 6 and the survivor count under setting [5] is listed as 0 of 6.

Regarding `COc1ccc(C(=O)C(CN(C)C)CN(C)C)cc1OC`, the T/C under setting [6] is 126 % of control [5 of 6 alive]. Besides, the survivor count is on record as 3 of 6 under setting [6], 0 of 5 under setting [7] and 0 of 5 under setting [8].

Regarding `CCOC(=O)Oc1ccc(/C=N/NC(N)=S)nc1`, the survivor count (dose: 200.0 mg/kg/injection, schedule: Q01DX009 (ip), vehicle: saline with Tween-80) is 6 of 6.

For `CC1=CC(=O)N2CCN=C2S1`, the survivor count (dose: 400.0 mg/kg/injection, schedule: Q04DX003 (ip), vehicle: Klucel (hydroxypropylcellulose) (HPC)) is recorded as 2 of 6.

On to `C1CCC2CC3CCCCN3COC2CC1` (stereo unspecified), for which, under setting [8], the survivor count was 2 of 6.

Take `COC(=O)[C@@]12OC[C@]34[C@H]([C@@H](O)[C@@H]1O)[C@@]1(C)CC(=O)C(O)=C(C)[C@@H]1C[C@H]3OC(=O)[C@H](OC(=O)C(Cc1ccccc1)NC(=O)OC(C)(C)C)[C@@H]24` (stereo partly specified): the T/C by setting is: (dose: 0.5 mg/kg/injection, schedule: Q01DX005 (ip), vehicle: Klucel (hydroxypropylcellulose) (HPC)) 128 % of control; (dose: 1.0 mg/kg/injection, schedule: Q01DX005 (ip), vehicle: Klucel (hydroxypropylcellulose) (HPC)) 125 and 127 % of control; (dose: 2.0 mg/kg/injection, schedule: Q01DX005 (ip), vehicle: Klucel (hydroxypropylcellulose) (HPC)) 131 and 132 % of control; (dose: 4.0 mg/kg/injection, schedule: Q01DX005 (ip), vehicle: Klucel (hydroxypropylcellulose) (HPC)) 137 [5 of 6 alive] and 145 % of control; (dose: 8.0 mg/kg/injection, schedule: Q01DX005 (ip), vehicle: Klucel (hydroxypropylcellulose) (HPC)) 149 % of control.

With `O=C(O)C1[N-]CCNC1C(=O)O.[O]=[V][OH]` (stereo unspecified), the survivor count reads like this: under setting [4], 3 of 6; under setting [5], 0 of 6.

Consider `O=C1C(N=Nc2ccc([N+](=O)[O-])cc2)Sc2nc3ccccc3n21` (stereo unspecified), for which the survivor count by setting is: (dose: 60.0 mg/kg/injection, schedule: Q01DX005 (ip), vehicle: Klucel (hydroxypropylcellulose) (HPC)) 6 of 6; (dose: 120.0 mg/kg/injection, schedule: Q01DX005 (ip), vehicle: Klucel (hydroxypropylcellulose) (HPC)) 5 of 6; (dose: 240.0 mg/kg/injection, schedule: Q01DX005 (ip), vehicle: Klucel (hydroxypropylcellulose) (HPC)) 6 of 6.

On to `COc1cc(S(=O)(=O)O)ccc1N=N/C(=N\Nc1ccc(S(=O)(=O)O)cc1OC)C(N)=O`, for which, under setting [1], the survivor count was 6 of 6.

As to `O=NNc1nccs1`, the survivor count (dose: 25.0 mg/kg/injection, schedule: Q01DX009 (ip), vehicle: water) is on record as 0 of 6.

For the molecule `C1CCC(C2CCCC[N-]2)[N-]C1.C1CCC(C2CCCC[N-]2)[N-]C1.O=S(=O)(O)O.[Cu+2]` (stereo unspecified), the survivor count reads like this: (dose: 100.0 mg/kg/injection, schedule: Q04DX002 (ip), vehicle: Klucel (hydroxypropylcellulose) (HPC)) 0 of 6; (dose: 200.0 mg/kg/injection, schedule: Q04DX002 (ip), vehicle: Klucel (hydroxypropylcellulose) (HPC)) 0 of 6; (dose: 400.0 mg/kg/injection, schedule: Q04DX002 (ip), vehicle: Klucel (hydroxypropylcellulose) (HPC)) 0 of 6.

For the molecule `Cc1coc2c3c(ccc12)OC(C)(C)C=C3`, the survivor count (dose: 400.0 mg/kg/injection, schedule: Q01DX001 (ip), vehicle: saline with Tween-80) was 6 of 6.

With `CC1(C)OC2C(COC(=O)c3ccc([N+](=O)[O-])cc3)OC(NC(=O)N(CCCl)N=O)C2O1` (stereo unspecified), the T/C (dose: 0.78 mg/kg/injection, schedule: Q01DX009 (ip), vehicle: saline with Tween-80) is 131 % of control and the T/C under setting [9] is 141 % of control [5 of 6 alive]. Besides, the survivor count (dose: 400.0 mg/kg/injection, schedule: Q01DX009 (ip), vehicle: saline with Tween-80) is 5 of 6.

Consider `CC(NC(=O)OCc1ccccc1)C(=O)NC(C(N)=O)C(C)C` (stereo unspecified), for which the survivor count runs as follows: under setting [1], 6 of 6; under setting [2], 6 of 6.

For the molecule `COC(COC(=O)N1CCN(C=O)CC1)C1=C(N2CC2)C(=O)C(C)=C(N2CC2)C1=O` (stereo unspecified), the T/C (dose: 1.56 mg/kg/injection, schedule: Q01DX005 (ip), vehicle: saline) is 146 % of control. Also, the survivor count was 4 of 6 and 6 of 6 (dose: 12.5 mg/kg/injection, schedule: Q01DX005 (ip), vehicle: saline); 0 of 6 (dose: 25.0 mg/kg/injection, schedule: Q01DX005 (ip), vehicle: saline); 0 of 6 under setting [6]; 0 of 6 under setting [7]; 0 of 6 under setting [8].

On to `NCc1ccccc1`, for which the survivor count under setting [5] was 1 of 6 and 3 of 6; the survivor count (dose: 400.0 mg/kg/injection, schedule: Q01DX009 (ip), vehicle: saline) was 0 of 6; the survivor count (dose: 600.0 mg/kg/injection, schedule: Q01DX009 (ip), vehicle: saline) is listed as 0 of 6.

With `CSC(=S)NN=C1CCCCC1`, the T/C (dose: 3.13 mg/kg/injection, schedule: Q01DX009 (ip), vehicle: saline with Tween-80) was 142 % of control. Besides, the survivor count is, setting by setting: under setting [9], 1 of 6; (dose: 12.5 mg/kg/injection, schedule: Q01DX009 (ip), vehicle: saline with Tween-80) 2 of 6; (dose: 25.0 mg/kg/injection, schedule: Q01DX009 (ip), vehicle: saline with Tween-80) 3 of 6; (dose: 50.0 mg/kg/injection, schedule: Q01DX009 (ip), vehicle: saline with Tween-80) 3 of 6.

As to `CCn1c(O)c(N=NC(=S)SCc2ccccc2)c2ccccc21`, the survivor count is listed as 6 of 6 (dose: 12.5 mg/kg/injection, schedule: Q01DX009 (ip), vehicle: suspension in saline); 6 of 6 (dose: 25.0 mg/kg/injection, schedule: Q01DX009 (ip), vehicle: suspension in saline); 6 of 6 under setting [3]; 6 of 6 under setting [4].

`C=CC1CN2CCC1CC2C(OC(=O)OCCOC(=O)C(=C)C)c1ccnc2ccc(OC)cc12` (stereo unspecified): the T/C was 86, 93, 100, 101 % of control (dose: 25.0 mg/kg/injection, schedule: Q01DX009 (ip), vehicle: saline); 99, 101, 108 % of control under setting [3]; 91 [5 of 6 alive], 100 [4 of 6 alive], 105 [5 of 6 alive], 111 % of control [5 of 6 alive] under setting [4]; 98 [4 of 6 alive], 99, 107, 129 % of control under setting [5]. Further, the survivor count is 3 of 6 and 5 of 6 under setting [3]; 3 of 6 under setting [4]; 3 of 6 under setting [5].
